{"source": "patent US20130123350", "tested_on": "c-Met (endogenous, T98G glioma cells) (Homo sapiens)", "assay": "activity in cells", "details": "2'-F on all C and U; 1 ug/mL inhibits HGF (50 ng/mL)-induced T98G cell movement; protein on the cell surface; variant of g38", "note": "Construct, isoform or probe ends are uncertain for at least one entry.", "data": [{"sequence": "GGGACGCUCACGUACGCUAACCAGGAGCAUUAGACCGGGGAAAGAAGGAGUACCGUCUGGUCAGUGCCUGGACGUGCAGU [g38 2'-F]", "values": [{"measurement": "functional effect of the aptamer", "result": "active"}]}]}
